# The list shows a part of the results. Further columns of the screen follow, without active or inactive calls. The list favours compounds with an active or inconclusive main result. Words in brackets tell the shape of the fitted curve; partial curves, single points and poor fits give uncertain potencies.
# Assay: qHTS Assay for Lipid Storage Modulators in Drosophila S3 Cells;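 for cell number change: cells counted by Cell Tracker Red CMTPX staining in the red channel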
# Conditions: BODIPY lipid droplet fluorescence, 18-24 h; for cell number change: measured here: cell count max response, cells fed with added oleic acid
# In short: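 Drosophila S3 cells loaded with oleic acid (400 uM, as added) and compounds at several concentrations; lipid droplets imaged by 488-nm laser-scanning cytometry, 500–530 nm intensity and object ratio to cell channel. Percent activity normalized to 20 uM Triacsin C.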
# [1] = measured here: lipid fluorescence (Fed channel) AC50, cells fed with added oleic acid
# [2] = measured here: cell number channel AC50, cells fed with added oleic acid
Structure (SMILES),cell number change [%],AC50 [1],AC50 [2]
CCN1CCCC1CNS(=O)(=O)c1cccc(C(F)(F)F)c1 (stereo unspecified),10.9,"6.51 µM [falling, partial curve]",–
NNC(=O)c1cc(S(=O)(=O)N2CCOCC2)c[nH]1,-2.8,–,–
Cn1c(SCc2ccc(C(=O)Nc3nccs3)cc2)nnc1-c1ccccc1,13.2,–,–
c1ccc(-c2ncc(-c3ccn[nH]3)s2)cc1,-36.4,"0.411 µM [rising, partial curve, poor fit]","32.6 µM [falling, single point]"
CCOc1ccccc1C(=O)NC(CO)C(=O)O (stereo unspecified),–,"29.1 µM [falling, single point]",–
O=C(Oc1coc(CSc2ncccn2)cc1=O)c1ccco1,-36,"0.206 µM [falling, full curve, poor fit]","2.31 µM [falling, partial curve, poor fit]"
Cc1csc(NC(=O)c2c(-c3c(Cl)cccc3Cl)noc2C)n1,41.9,–,"1.84 µM [rising, full curve]"
COc1ccc(Cn2c(=N)c(C(=O)NCC3CCCO3)cc3c(=O)n4ccccc4nc32)cc1 (stereo unspecified),11,–,–
CCOC(=O)C1=C(C)NC(C)=C(C(=O)OCC)C1C(=O)OCC(=O)N1CCCCC1CC (stereo unspecified),15,"6.51 µM [rising, single point]",–
c1ccc(-c2csc(-c3ccc(-c4csnn4)cc3)n2)cc1,-22.3,"29.1 µM [falling, single point]",–
CC1CN(C(=O)CCC(=O)N2CCN(c3ccccn3)CC2)c2ccccc2O1 (stereo unspecified),-13,–,–
CCCC(CCC)C(=O)Nc1cccc(C(=O)O)c1,5.18,"29.1 µM [rising, single point]",–
O=C(CSc1ccccc1)Nc1ccc(NC(=O)c2ccco2)cc1,14.4,–,–
C#CCOc1ccc(/C=C2/C(=O)ON=C2C)cc1Br,-9.93,"29.1 µM [falling, single point]",–
CN(C)S(=O)(=O)c1ccc(C(=O)OCc2nnc(-c3ccccc3)o2)cc1,-12.4,–,–
Nc1nc(SCC(=O)NNc2c(Cl)cc(Cl)cc2Cl)n[nH]1,1.04,–,"1.84 µM [falling, partial curve]"
Cn1c(NCCCN2CCOCC2)nc2c1c(=O)n(Cc1ccc(Cl)c(Cl)c1)c(=O)n2C,16.1,–,–
C=CCN1C(=NC(=O)CC)SC2CS(=O)(=O)CC21 (stereo unspecified),35.6,–,"4.11 µM [rising, partial curve]"
Cc1ccc(-n2c(SCC(=O)N3CCCc4ccccc43)nnc2-c2cccnc2)c(C)c1,6.05,–,–
COc1ccc(OC)c(CN2CCN(CC(=O)Nc3ccccc3C(=O)NC3CC3)CC2)c1,5.97,"29.1 µM [rising, single point]",–
CC(=O)Nc1ccc(NC(=O)C(C)OC(=O)CCCN=C2NS(=O)(=O)c3ccccc32)cc1 (stereo unspecified),50,–,"29.1 µM [rising, single point]"
O=C1CC(c2cccs2)Cc2nc(NCC3CCCO3)ncc21 (stereo unspecified),46.9,"1.16 µM [rising, single point]","0.731 µM [rising, full curve]"

Structure (SMILES),cell number change [%],AC50 [1],AC50 [2]
COC(=O)c1cc(-c2ccc(Br)cc2)n[nH]1,–,"0.651 µM [falling, single point]",–
CCOc1ccc(NC(=O)CNS(=O)(=O)c2c(C)cc(C)cc2C)cc1,–,"0.82 µM [falling, full curve]",–
CCOc1ccccc1Nc1cc(C)c2cccc(C)c2n1,21.4,"29.1 µM [falling, single point]",–
CCOC(=O)c1ccc2[nH]c3c(c2c1)CCCC3C(=O)OCC (stereo unspecified),-4.03,–,"2.31 µM [rising, partial curve, poor fit]"
S=c1[nH]c2cc3c(cc2[nH]1)OCCO3,-11.1,–,–
CC(OC(=O)c1ccccc1C(=O)N(C)C1CCCCC1)C(=O)NC1(C#N)CCCCC1 (stereo unspecified),-3.85,–,–
CC(=O)c1ccc(N2CCN(C(=O)c3ccc(-c4ccccc4)cc3)CC2)cc1,4.44,–,"0.058 µM [rising, full curve, poor fit]"
N#C/C(=C\c1c(N2CCCCCC2)nc2ccccn2c1=O)C(=O)NCc1ccco1,17.4,"1.03 µM [rising, partial curve]",–
CCOc1cc(Cl)c(S(=O)(=O)NCc2ccccn2)cc1Cl,-15.7,"6.51 µM [falling, single point]",–
O=C(NCCN1CCN(Cc2ccccc2)CC1)c1cc2c(=O)[nH]c3ccccc3c2s1,1.13,"9.2 µM [rising, partial curve]",–
C/C(CC(=O)Nc1ccc(Cl)cc1Cl)=N\NC(N)=S,-18.7,"16.4 µM [falling, partial curve, poor fit]",–
COc1ccc(-c2nn(-c3ccccc3)cc2CNC(=O)c2cccc([N+](=O)[O-])c2)cc1,-27.1,–,–
Cc1cc(C(=O)CCC(=O)N2CCN(c3ccccc3F)CC2)c(C)s1,19.6,"5.8 µM [rising, single point]",–
CCCCCCc1cc2cc(C(=O)NCc3ccccc3)c(=N)oc2cc1O,-49,"13 µM [falling, partial curve]","14.6 µM [falling, partial curve]"
COc1ccc(CN2C(=O)c3ccccc3C2=O)cc1C(=O)Nc1ccccc1N1CCOCC1,28.4,–,"6.51 µM [rising, single point]"
COC(=O)c1c(NC(=O)Cc2cccs2)sc(C(=O)N2CCCCC2)c1C,-25,"32.6 µM [falling, single point]",–
COc1cc(OC)cc(C(=O)NNC(=S)NC2CC2)c1,17.6,"0.092 µM [rising, full curve, poor fit]",–
COc1cc(/C(C)=N\NC(=O)CSc2nc3ccccc3n2C)ccc1O,8.19,–,–
CC(=O)N1CCc2cc(S(=O)(=O)NCCC(=O)NC3CCCCCC3)ccc21,-11.8,"20.6 µM [rising, single point]",–
COc1ccc(NC(=O)N2c3ccccc3CC2C)cc1OC (stereo unspecified),18.7,–,–
COc1ccc(C2NC(=O)NC(C)=C2C(=O)OC2CCCC(C)C2)cc1 (stereo unspecified),-12.4,–,–
O=C(CCSCCc1ccccn1)Nc1ccccn1,30.2,–,"23.1 µM [rising, partial curve, poor fit]"

# 3 structures already listed, arranged by heavy-atom count, ascending.
Structure (SMILES),cell number change [%],AC50 [1],AC50 [2]
S=c1[nH]c2cc3c(cc2[nH]1)OCCO3,-11.1,–,–
O=C1CC(c2cccs2)Cc2nc(NCC3CCCO3)ncc21 (stereo unspecified),46.9,"1.16 µM [rising, single point]","0.731 µM [rising, full curve]"
CC(=O)c1ccc(N2CCN(C(=O)c3ccc(-c4ccccc4)cc3)CC2)cc1,4.44,–,"0.058 µM [rising, full curve, poor fit]"

# Additional records follow.

Structure (SMILES),cell number change [%],AC50 [1],AC50 [2]
CCN(C1CCCCC1)S(=O)(=O)c1ccc(OC)c(C)c1,-0.312,–,–
Cn1c(CNC(=O)CNC(=O)Cc2ccc(F)cc2)cc(=O)n(C)c1=O,20,–,–
O=C(c1cc(COc2ccc3ncccc3c2)on1)N1CCCC1,–,"4.61 µM [falling, partial curve]",–
CC(C)(C)NC(=O)C(c1cccs1)N(Cc1cccs1)C(=O)c1ccc(CN2CCOCC2)o1 (stereo unspecified),19.1,"4.11 µM [rising, full curve]",–
COc1ccc(S(=O)(=O)Cc2ccc(C(=O)NC3CC3)o2)cc1,49.6,"23.1 µM [rising, partial curve]","3.66 µM [rising, single point]"
COc1ccc(OCc2nc(N)nc(Nc3ccccc3)n2)cc1,70.3,"4.61 µM [rising, full curve]","2.31 µM [rising, full curve]"
O=c1c2c(nc3nc(NCc4ccccc4Cl)[nH]n13)CCC2,–,–,"6.51 µM [rising, single point]"
CCCCC(Sc1nc(N)c(NC(=O)c2ccc(OCC)cc2)c(=O)[nH]1)C(=O)O (stereo unspecified),-12,"0.13 µM [falling, full curve, poor fit]","0.103 µM [falling, full curve, poor fit]"
Cc1cc(C)cc(C(=O)N2CCCCCC2)c1,21.3,"0.206 µM [rising, full curve, poor fit]",–
CO/N=C/NC(=O)c1c(OC)ccnc1Oc1ccc(Cl)cc1,20.4,"23.1 µM [rising, single point]",–
C/C(Cl)=C\Cn1c(O)c(N=NC(N)=S)c2cc(Br)ccc21,-52.9,"20.6 µM [falling, partial curve]","20.6 µM [falling, single point]"
Cc1cc(C)c2c(c1)/C(=N/NS(=O)(=O)c1ccc(Br)cc1)CCC2,-57.3,–,"16.4 µM [falling, single point]"
COc1ccc(NC(=O)CSc2nccc(C)n2)cc1,–,"4.61 µM [rising, partial curve]",–
O=C(CSc1n[nH]c(=O)[nH]c1=O)c1ccccc1[N+](=O)[O-],3.8,"0.0058 µM [falling, full curve, poor fit]",–
CCc1cc(C(=O)N2CCN(S(=O)(=O)c3ccc(Cl)cc3)CC2)sc1C,–,"14.6 µM [falling, partial curve, poor fit]",–
Cc1ccc(-c2nnc(SCC#CCOC(=O)c3ccco3)o2)cc1,93.7,"1.16 µM [rising, full curve]","8.2 µM [rising, partial curve, poor fit]"
COc1cccc(NC(=O)Nc2nnc(Cc3ccccc3)s2)c1,-16.9,"14.6 µM [falling, partial curve]",–
COc1ccc(/C=N/NC(=O)c2ccc3c(c2)NC(=O)C(C)(C)O3)cc1OC,-4.78,"2.91 µM [rising, single point]",–
Cc1ccccc1C(=O)NCC(=O)OC(C)C(=O)NCc1ccco1 (stereo unspecified),-15,–,–
CCSc1nsc(NC(=O)Nc2cccc(F)c2)n1,-30.5,"3.66 µM [falling, single point]","10.3 µM [falling, single point]"
CC(C)(C)NC(=O)C(c1ccco1)N(Cc1ccc2c(c1)OCO2)C(=O)Cn1nnc2ccccc21 (stereo unspecified),-19.5,"0.0164 µM [rising, full curve, poor fit]",–

# From PubChem BioAssay AID2685 (National Center for Advancing Translational Sciences (NCATS), 2010)
